Data published in paper PMC5355241.
These are yes or no findings as the source states them, for the method shown. Binding seen in cells or lysates may run through a third protein. Some entries that bind do so weakly or less than the wild type.

Amino acid sequences for entries named in this document (tags omitted).
UniProt Q03468: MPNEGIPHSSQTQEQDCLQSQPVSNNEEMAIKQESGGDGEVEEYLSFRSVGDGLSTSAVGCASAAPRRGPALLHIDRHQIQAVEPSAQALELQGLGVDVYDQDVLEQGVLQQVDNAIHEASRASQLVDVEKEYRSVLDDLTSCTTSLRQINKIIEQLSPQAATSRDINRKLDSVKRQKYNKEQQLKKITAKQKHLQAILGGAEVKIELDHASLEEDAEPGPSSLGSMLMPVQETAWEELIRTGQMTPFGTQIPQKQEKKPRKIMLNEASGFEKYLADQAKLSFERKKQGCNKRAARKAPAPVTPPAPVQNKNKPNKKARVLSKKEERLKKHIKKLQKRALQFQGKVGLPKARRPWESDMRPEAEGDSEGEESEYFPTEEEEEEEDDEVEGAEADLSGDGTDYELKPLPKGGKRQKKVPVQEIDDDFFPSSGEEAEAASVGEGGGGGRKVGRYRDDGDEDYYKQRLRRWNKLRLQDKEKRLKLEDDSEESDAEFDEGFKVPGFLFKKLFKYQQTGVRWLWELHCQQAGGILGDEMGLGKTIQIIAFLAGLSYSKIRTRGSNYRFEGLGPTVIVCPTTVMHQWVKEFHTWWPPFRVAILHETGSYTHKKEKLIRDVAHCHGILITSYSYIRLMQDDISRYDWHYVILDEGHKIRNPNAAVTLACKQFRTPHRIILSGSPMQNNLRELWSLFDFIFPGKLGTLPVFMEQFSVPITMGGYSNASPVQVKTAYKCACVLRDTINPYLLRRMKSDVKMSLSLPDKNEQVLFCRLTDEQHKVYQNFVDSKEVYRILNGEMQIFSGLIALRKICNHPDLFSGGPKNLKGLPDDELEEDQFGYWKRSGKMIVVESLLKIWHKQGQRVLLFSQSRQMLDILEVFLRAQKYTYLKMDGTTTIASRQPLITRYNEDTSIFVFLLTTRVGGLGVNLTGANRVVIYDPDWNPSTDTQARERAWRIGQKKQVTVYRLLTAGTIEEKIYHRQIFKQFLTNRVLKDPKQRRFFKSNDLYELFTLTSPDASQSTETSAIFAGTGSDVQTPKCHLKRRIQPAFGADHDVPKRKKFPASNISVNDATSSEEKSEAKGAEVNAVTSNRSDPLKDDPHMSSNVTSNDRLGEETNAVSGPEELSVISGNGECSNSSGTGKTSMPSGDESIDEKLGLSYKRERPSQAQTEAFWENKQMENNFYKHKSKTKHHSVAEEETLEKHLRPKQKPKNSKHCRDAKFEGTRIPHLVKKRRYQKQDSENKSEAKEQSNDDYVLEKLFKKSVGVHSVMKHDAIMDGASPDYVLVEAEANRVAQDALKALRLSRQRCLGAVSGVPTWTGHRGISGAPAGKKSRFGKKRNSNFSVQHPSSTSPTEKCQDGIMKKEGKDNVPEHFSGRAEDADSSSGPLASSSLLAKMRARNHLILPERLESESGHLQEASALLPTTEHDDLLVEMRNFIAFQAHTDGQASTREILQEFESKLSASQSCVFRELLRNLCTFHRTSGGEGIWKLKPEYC

Molecular target: Valosin-containing protein (VCP)/p97 (human (endogenous in HCT116 and CS1AN+iCSB)) (UniProt P55072)
Assay: co-IP; anti-VCP/p97 antibody, protein A Plus G agarose; RIPA lysates of CS1AN+iCSB cells with and without Dox induction of CSB, 2 h after UV at 20 J/m^2; Western blot for RNAPII and CSB

binding: binds
Substance: Cockayne syndrome B protein (CSB) (from UniProt Q03468 1-1493)
